# Source: PubChem BioAssay AID1671190 (National Center for Advancing Translational Sciences (NCATS), 2021)
# Protein sequences, listed by entry. Tags and fused reporters are not part of them. Lines headed by an entry give the natural chain unless they say otherwise; changes in a name come on top.
# UniProt P18054: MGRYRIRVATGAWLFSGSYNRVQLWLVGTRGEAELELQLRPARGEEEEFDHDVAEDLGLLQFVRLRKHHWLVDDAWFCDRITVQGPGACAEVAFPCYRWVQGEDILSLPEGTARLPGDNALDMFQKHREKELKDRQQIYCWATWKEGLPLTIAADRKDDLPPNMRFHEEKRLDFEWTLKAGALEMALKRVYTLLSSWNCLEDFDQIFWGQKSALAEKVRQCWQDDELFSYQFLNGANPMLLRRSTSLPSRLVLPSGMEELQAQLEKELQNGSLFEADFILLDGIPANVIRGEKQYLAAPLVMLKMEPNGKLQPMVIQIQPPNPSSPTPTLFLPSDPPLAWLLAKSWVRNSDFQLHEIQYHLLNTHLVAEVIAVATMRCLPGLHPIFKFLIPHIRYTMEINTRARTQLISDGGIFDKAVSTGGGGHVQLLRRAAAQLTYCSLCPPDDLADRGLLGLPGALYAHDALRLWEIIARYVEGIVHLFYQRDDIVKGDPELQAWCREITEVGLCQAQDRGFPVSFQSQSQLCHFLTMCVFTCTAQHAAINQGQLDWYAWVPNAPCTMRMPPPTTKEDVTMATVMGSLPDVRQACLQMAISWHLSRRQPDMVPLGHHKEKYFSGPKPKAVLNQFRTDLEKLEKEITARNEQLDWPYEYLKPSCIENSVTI
# About 6,100 (1.1%) of roughly 580,000 compounds were called active. Inconclusive means that the source gave no clear call. Such entries were picked first, then a sample of the others. Calls follow the shape of the dose curve; as a rule, active = well fitted inhibition curve with a large enough effect; inconclusive = small, poorly fitted or top-dose-only effect, or another doubt; inactive = no such curve, though single readings can be large or run the other way. Potencies of inconclusive entries are doubtful fits and often do not repeat.
# Target: Polyunsaturated fatty acid lipoxygenase ALOX12 (Homo sapiens) (UniProt P18054)
# Assay: Primary qHTS assay for inhibitors of human arachidonate 12S-lipoxygenase (ALOX12): Round 2
# Conditions: purified 12hLO, xylenol orange hydroperoxide absorbance; activity change, negative = inhibition: at 108 µM (top of the series) unless noted
# Summary of the method: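 Purified human 12hLO (150 nM final) in 25 mM Hepes, 0.01% Triton X-100, pH 7.0 was preincubated 15 min at room temperature with compound. Then 40 uM arachidonic acid was added, 30 min. Hydroperoxide was read by Fe-XO absorbance ratio 573/405 nm.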
# % is scaled to controls: 0 for no effect and ±100 for the full control effect; potency is read from the fitted curve at half-maximal effect.
Compound,Potency,"activity change, negative = inhibition"
O=C(OCc1ccccc1)c1ccncc1,inactive,–
Cn1cnc([N+](=O)[O-])c1Sc1ncnc2nc[nH]c12,"inconclusive: 21.7 µM [inhibitor, partial curve, poor fit]",–
Cc1ccc(-n2nnc(S(=O)(=O)c3ccc(Cl)cc3)c2C)cc1F,inactive,–
CC(NC(=O)/C=C/c1ccco1)c1nc2ccccc2n1Cc1c(Cl)cccc1Cl (stereo unspecified),"inconclusive: 44.7 µM [inhibitor, partial curve, poor fit]",–
COCc1nc(NCCCN2CCOCC2)cc(C2CC(N)C2)n1 (stereo unspecified),"inconclusive: 14.1 µM [inhibitor, partial curve]",–
COc1cccc(N2CCN(c3ncnc4c3c(-c3ccccc3)cn4-c3ccc(F)cc3)CC2)c1,"inconclusive: 89.1 µM [inhibitor, partial curve, poor fit]",–
Cc1ccc(C(=O)N/C(=C/c2ccco2)C(=O)N2CCCCCC2)cc1,"inconclusive: 70.8 µM [inhibitor, partial curve, poor fit]",–
O=C(Nc1nnc(-c2ccccc2)o1)c1cccc(N2C(=O)CCC2=O)c1,inactive,–
COc1ccc(NC(=O)c2nn(C)c(=O)c3ccccc23)cc1S(=O)(=O)N(C)C,inactive,–
COc1ccc(OC)c(S(=O)(=O)Nc2ccccc2C(F)(F)F)c1,–,inconclusive: -31.1% [inhibitor]
Cc1ccccc1OCC(=O)Nc1ccc(C)c(S(=O)(=O)N2CCCCCC2)c1,"inconclusive: 89.1 µM [inhibitor, single point]",–
c1ccc(-c2cc3c(N4CCCCC4)ncnc3s2)cc1,"inconclusive: 0.251 µM [inhibitor, full curve, poor fit]",–
COCC(=O)Nc1ccc(N2CCOCC2)c(S(=O)(=O)Nc2ccccc2OC)c1,"inconclusive: 3.16 µM [inhibitor, full curve]",–
Cc1ccc(N=C2NC(=O)/C(=C\c3ccco3)S2)cc1,"inconclusive: 50.1 µM [inhibitor, partial curve]",–
O=C(c1ccc(Cl)cc1)N1CCC2(COc3ccncc3[S+](=O)([O-])N2)C1 (stereo unspecified),–,inconclusive: -30.5% [inhibitor]
O=C(NNC(=O)c1ccccc1O)c1ccc(S(=O)(=O)Nc2ccccc2F)cc1,"inconclusive: 44.7 µM [inhibitor, partial curve, poor fit]",–
Cc1cc(C(=O)OCC(=O)NC(=O)NC(C)(C)C)c2ccccc2n1,inactive,–
Cc1cc(C(=O)N2CC(F)(F)C[C@H]2c2nnc(C3CC3)o2)on1,inactive,–
COc1ccc(C(=O)C[n+]2cc(-c3ccc(OC)cc3)n3c2CCCC3)cc1,inactive,–
O=C(Nc1ccc2c(c1)OCO2)c1cc2c(s1)-c1ccccc1OC2,"inconclusive: 56.2 µM [inhibitor, partial curve, poor fit]",–
Cc1c(OCC(=O)N[C@H](C(=O)O)c2ccccc2)ccc2c3c(c(=O)oc12)CCCC3,"inconclusive: 50.1 µM [inhibitor, partial curve, poor fit]",–

Compound,Potency,"activity change, negative = inhibition"
CC(C)OCCCNc1ncnc2c1CN(C1CCNC1)C(=O)CN2C (stereo unspecified),"inconclusive: 3.98 µM [inhibitor, full curve, poor fit]",–
CCn1ncc(Br)c1C(=O)Nc1nccs1,inactive,–
Cc1ccc(S(=O)(=O)c2cc3ccccc3oc2=Nc2ccc3c(c2)OCO3)cc1,inactive,–
COc1ccccc1N1CCN(c2ncnc3c2c(-c2ccccc2)cn3-c2cccc(C)c2)CC1,inactive,–
COc1cc2c(cc1OC)C(c1ccccc1)N(C(=O)c1cccc(S(C)(=O)=O)c1)CC2 (stereo unspecified),"inconclusive: 100 µM [inhibitor, single point]",–
COc1ccc(C(=O)Nc2ccc(-c3n[nH]c(=S)o3)cc2)cc1OC,"inconclusive: 44.7 µM [inhibitor, partial curve, poor fit]",–
Cn1cc(S(=O)(=O)N2CCc3ccccc32)cc1C(=O)NC(C)(C)C,"inconclusive: 112 µM [inhibitor, single point]",–
COC(=O)C1=C(C)N(Cc2ccccc2C(F)(F)F)C(=NCc2ccc(OC)cc2)NC1c1ccc(Cl)cc1 (stereo unspecified),"inconclusive: 70.8 µM [inhibitor, partial curve, poor fit]",–
CC(=O)Nc1cccc(-c2csc(NCc3ccccc3)n2)c1,"inconclusive: 0.501 µM [inhibitor, full curve, poor fit]",–
CCCOc1ccc(C2c3c(oc4ccc(F)cc4c3=O)C(=O)N2CCc2ccc(OC)cc2)cc1 (stereo unspecified),"inconclusive: 100 µM [inhibitor, single point]",–
CC1=C(C(=O)OC(C)C)C(c2ccc(Cl)cc2)n2c(s/c(=C\c3ccc(OCC(=O)O)cc3)c2=O)=N1 (stereo unspecified),"inconclusive: 44.7 µM [inhibitor, partial curve, poor fit]",–
Cc1ccc(/C=N/Nc2ccc(S(N)(=O)=O)cc2[N+](=O)[O-])s1,"inconclusive: 141 µM [inhibitor, single point]",–
COc1cccc(C(=O)/C=C/Nc2ccc(S(=O)(=O)Nc3ccc(C(C)=O)cc3)cc2)c1,inactive,–
CC1(C)CCC[C@]2(C)[C@H]3CCO[C@]3(C)CC[C@@H]12,inactive,–
COc1ccc(-c2cc(=O)c3c(O)cc(O[C@@H]4O[C@H](CO[C@@H]5O[C@@H](C)[C@H](O)[C@@H](O)[C@@H]5O)[C@@H](O)[C@H](O)[C@@H]4O)cc3o2)cc1O,"inconclusive: 15.3 µM [inhibitor, partial curve, poor fit]",–
Cc1cccc(Cl)c1NNC(=O)Nc1c([N+](=O)[O-])c(C)nn1C,"inconclusive: 63.1 µM [inhibitor, partial curve, poor fit]",–
CCc1ccc(CN2CCN(S(=O)(=O)Cc3ccccc3)CC2)cc1,inactive,–
Cc1ccc(C)c(S(=O)(=O)N(C)Cc2cccs2)c1,"inconclusive: 35.5 µM [inhibitor, partial curve, poor fit]",–
O=C(COc1ccc(F)cc1)N1CCC2(CC1)NC(=O)N(c1ccc(F)cc1)N2,active: 2.51 µM,–
CC(=O)O[C@H]1[C@@H](O)[C@H](O)[C@H](Oc2c(O)c(C)c3c4c2[C@@H](C)CC[C@@H]4[C@@H](C)C[C@@H]3C=C(C)C)O[C@H]1C,"inconclusive: 50.1 µM [inhibitor, partial curve, poor fit]",–

# Not a retest: entries from further up.
Compound,Potency,"activity change, negative = inhibition"
Cc1ccccc1OCC(=O)Nc1ccc(C)c(S(=O)(=O)N2CCCCCC2)c1,"inconclusive: 89.1 µM [inhibitor, single point]",–
c1ccc(-c2cc3c(N4CCCCC4)ncnc3s2)cc1,"inconclusive: 0.251 µM [inhibitor, full curve, poor fit]",–
